{
  "source": "patent US5656449A",
  "about": "“Neutral unsymmetrical cyanine dyes” (Molecular Probes, Inc., priority 1995, dated 1997)",
  "tested_on": "doublestranded cal thymus DNA",
  "assay": "Spectral characteristics of dyes bound to double-stranded DNA (Table 1)",
  "design": "species or system calf",
  "conditions": "for Quantum Yield (DNA): bound to doublestranded calf thymus DNA; for Emission (DNA complex): fluorescence emission maximum on doublestranded DNA; for Excitation (DNA complex): fluorescence excitation maximum on doublestranded DNA",
  "note": "Structures can show the parent of a compound that is named as a salt.",
  "data": [
    {"smiles": "Cc1cc(C=C2Sc3ccccc3N2C)c2ccccc2n1", "note": "[Dye 523-2]", "values": [
      {"measurement": "Quantum Yield (DNA)", "value": 0.19},
      {"measurement": "Emission (DNA complex)", "value": 517, "unit": "nm"},
      {"measurement": "Excitation (DNA complex)", "value": 493, "unit": "nm"}
    ]},
    {"smiles": "Cc1cc(C=C2Sc3ccccc3N2C)nc2ccccc12", "note": "[Dye 523-1]", "values": [
      {"measurement": "Quantum Yield (DNA)", "value": 0.25},
      {"measurement": "Emission (DNA complex)", "value": 521, "unit": "nm"},
      {"measurement": "Excitation (DNA complex)", "value": 462, "unit": "nm"}
    ]},
    {"smiles": "CCCCc1cc(C=C2Sc3ccccc3N2CC)c2ccccc2n1", "note": "[Dye 1268]", "values": [
      {"measurement": "Quantum Yield (DNA)", "value": 0.25},
      {"measurement": "Emission (DNA complex)", "value": 517, "unit": "nm"},
      {"measurement": "Excitation (DNA complex)", "value": 492, "unit": "nm"}
    ]},
    {"smiles": "CN1C(=Cc2cc[n+](C)c3ccccc23)Oc2ccccc21", "note": "[Oxazole Yellow, reference compound]", "values": [
      {"measurement": "Quantum Yield (DNA)", "value": 0.31},
      {"measurement": "Emission (DNA complex)", "value": 504, "unit": "nm"},
      {"measurement": "Excitation (DNA complex)", "value": 483, "unit": "nm"}
    ]},
    {"smiles": "CN1C(=Cc2ccnc3ccccc23)Oc2ccccc21", "note": "[Dye 799]", "values": [
      {"measurement": "Quantum Yield (DNA)", "value": 0.27},
      {"measurement": "Emission (DNA complex)", "value": 493, "unit": "nm"},
      {"measurement": "Excitation (DNA complex)", "value": 465, "unit": "nm"}
    ]},
    {"smiles": "CN1C(=Cc2ccncc2)Sc2ccccc21", "note": "[Dye 7101]", "values": [
      {"measurement": "Quantum Yield (DNA)", "value": 0.12},
      {"measurement": "Emission (DNA complex)", "value": 475, "unit": "nm"},
      {"measurement": "Excitation (DNA complex)", "value": 444, "unit": "nm"}
    ]},
    {"smiles": "COc1ccc2nc(C=C3Sc4ccccc4N3C)ccc2c1", "note": "[Dye 1267]", "values": [
      {"measurement": "Quantum Yield (DNA)", "value": 0.07},
      {"measurement": "Emission (DNA complex)", "value": 543, "unit": "nm"},
      {"measurement": "Excitation (DNA complex)", "value": 475, "unit": "nm"}
    ]},
    {"smiles": "CCN(CC)c1cc(C=C2Sc3ccccc3N2CC)c2ccccc2n1", "note": "[Dye 510]", "values": [
      {"measurement": "Quantum Yield (DNA)", "value": 0.71},
      {"measurement": "Emission (DNA complex)", "value": 500, "unit": "nm"},
      {"measurement": "Excitation (DNA complex)", "value": 461, "unit": "nm"}
    ]},
    {"smiles": "CN1C(=Cc2ccnc3ccccc23)Sc2ccccc21", "note": "[Dye 798, 4-(2,3-dihydro-3-methyl-(benzo-1,3-thiazol-2-yl)-methylidine)-quinolinium tosylate]", "values": [
      {"measurement": "Quantum Yield (DNA)", "value": 0.09},
      {"measurement": "Emission (DNA complex)", "value": 521, "unit": "nm"},
      {"measurement": "Excitation (DNA complex)", "value": 491, "unit": "nm"}
    ]},
    {"smiles": "CCN1C(=Cc2ccnc3ccccc23)Sc2ccccc21", "note": "[Dye 1266]", "values": [
      {"measurement": "Quantum Yield (DNA)", "value": 0.07},
      {"measurement": "Emission (DNA complex)", "value": 524, "unit": "nm"},
      {"measurement": "Excitation (DNA complex)", "value": 490, "unit": "nm"}
    ]},
    {"smiles": "CN1C(=Cc2cc[n+](C)c3ccccc23)Sc2ccccc21", "note": "[Thiazole Orange, reference compound]", "values": [
      {"measurement": "Quantum Yield (DNA)", "value": 0.18},
      {"measurement": "Emission (DNA complex)", "value": 530, "unit": "nm"},
      {"measurement": "Excitation (DNA complex)", "value": 510, "unit": "nm"}
    ]},
    {"smiles": "CCN1C(=Cc2cc(Sc3ccccc3)nc3ccccc23)Sc2ccccc21", "note": "[Dye 509]", "values": [
      {"measurement": "Quantum Yield (DNA)", "value": 0.05},
      {"measurement": "Emission (DNA complex)", "value": 530, "unit": "nm"},
      {"measurement": "Excitation (DNA complex)", "value": 508, "unit": "nm"}
    ]},
    {"smiles": "CCN1C(=Cc2cc(-c3ccccc3)nc3ccccc23)Sc2ccccc21", "note": "[Dye 4100]", "values": [
      {"measurement": "Quantum Yield (DNA)", "value": 0.08},
      {"measurement": "Emission (DNA complex)", "value": 553, "unit": "nm"},
      {"measurement": "Excitation (DNA complex)", "value": 512, "unit": "nm"}
    ]},
    {"smiles": "CN1C(=Cc2ccc3ccccc3n2)Sc2ccccc21", "note": "[Dye 7100]", "values": [
      {"measurement": "Quantum Yield (DNA)", "value": 0.11},
      {"measurement": "Emission (DNA complex)", "value": 533, "unit": "nm"},
      {"measurement": "Excitation (DNA complex)", "value": 470, "unit": "nm"}
    ]}
  ]
}
